Measurements reported in publication PMC12310523.
No constants are given. Whether binding was seen depends on the method and setting. A result given as binding can be weak or reduced; the word gives no strength. Tags and fused reporters may be left off the sequences shown.

The chains behind the UniProt entries cited, without tags or fusion partners. Where a name states a change or a piece, a line headed by the entry shows the natural chain unless it says otherwise.
UniProt Q14527: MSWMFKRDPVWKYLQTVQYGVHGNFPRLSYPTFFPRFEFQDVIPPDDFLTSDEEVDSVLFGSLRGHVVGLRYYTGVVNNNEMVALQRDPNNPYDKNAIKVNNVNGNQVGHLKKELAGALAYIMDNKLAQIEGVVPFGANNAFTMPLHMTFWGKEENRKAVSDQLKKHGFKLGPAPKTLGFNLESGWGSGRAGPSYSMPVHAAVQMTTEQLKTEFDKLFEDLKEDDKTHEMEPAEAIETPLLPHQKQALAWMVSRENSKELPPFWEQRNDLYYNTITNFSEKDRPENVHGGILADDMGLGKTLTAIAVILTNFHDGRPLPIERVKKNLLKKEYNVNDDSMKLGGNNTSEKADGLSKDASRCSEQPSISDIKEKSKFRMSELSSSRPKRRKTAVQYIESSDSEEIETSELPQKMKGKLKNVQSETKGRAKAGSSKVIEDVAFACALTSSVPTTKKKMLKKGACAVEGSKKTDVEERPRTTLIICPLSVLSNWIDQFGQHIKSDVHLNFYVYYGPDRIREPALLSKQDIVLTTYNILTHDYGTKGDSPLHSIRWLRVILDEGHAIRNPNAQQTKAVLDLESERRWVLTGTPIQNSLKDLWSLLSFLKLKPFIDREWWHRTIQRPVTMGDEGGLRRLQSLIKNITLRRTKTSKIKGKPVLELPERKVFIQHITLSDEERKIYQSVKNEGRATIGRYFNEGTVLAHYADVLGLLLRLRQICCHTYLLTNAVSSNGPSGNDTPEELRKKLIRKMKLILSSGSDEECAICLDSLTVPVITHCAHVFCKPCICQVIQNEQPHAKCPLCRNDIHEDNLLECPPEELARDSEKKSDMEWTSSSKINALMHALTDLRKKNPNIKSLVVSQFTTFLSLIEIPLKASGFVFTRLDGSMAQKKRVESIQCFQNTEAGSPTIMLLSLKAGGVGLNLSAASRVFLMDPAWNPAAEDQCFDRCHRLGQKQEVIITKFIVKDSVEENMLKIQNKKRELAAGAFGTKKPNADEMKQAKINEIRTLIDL

Target: T1, StrepII-tagged and SUMO-tagged SMARCA3 (residues 26–39) (UniProt Q14527)
T1 sequence: PRLSYPTFFPRFEF
Assay: pull-down; StrepII-tagged proteins held on StrepTactin Sepharose; purified ANXA2(S100A) added for 1 h; binding buffer 50 mM HEPES, 200 mM NaCl, pH 7.5; eluted with 50 mM biotin; SDS–PAGE, Coomassie; both purified

binding: binds
Substance: ANXA2–S100A complex
